One substance from article PMC10714642 can be followed below.

Amino acid sequences for entries named in this document (tags omitted).
UniProt Q15208: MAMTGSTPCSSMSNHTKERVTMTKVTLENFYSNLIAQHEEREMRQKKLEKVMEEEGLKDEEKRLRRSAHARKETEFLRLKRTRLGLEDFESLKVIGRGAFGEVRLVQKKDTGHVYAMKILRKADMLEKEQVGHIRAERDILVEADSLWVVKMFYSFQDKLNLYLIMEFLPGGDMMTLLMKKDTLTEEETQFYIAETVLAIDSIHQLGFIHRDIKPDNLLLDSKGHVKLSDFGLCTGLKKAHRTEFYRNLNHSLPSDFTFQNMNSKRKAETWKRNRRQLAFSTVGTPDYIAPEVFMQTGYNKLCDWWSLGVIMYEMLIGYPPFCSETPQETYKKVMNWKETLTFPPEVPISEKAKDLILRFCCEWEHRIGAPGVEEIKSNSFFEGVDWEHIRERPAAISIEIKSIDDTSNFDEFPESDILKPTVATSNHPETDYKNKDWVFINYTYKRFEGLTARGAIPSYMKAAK

No constants are given. Whether binding was seen depends on the method and setting. Binding seen in cells or lysates may run through a third protein. Here binding means that the protein was enriched with, or labelled near, the bait; the list need not be complete.

This assay deals with T1, cytoplasmic activation/proliferation-associated protein-1 (Caprin-1) (human (Bxpc-3 and Panc-1 cells)) (UniProt Q14444).
T1 sequence: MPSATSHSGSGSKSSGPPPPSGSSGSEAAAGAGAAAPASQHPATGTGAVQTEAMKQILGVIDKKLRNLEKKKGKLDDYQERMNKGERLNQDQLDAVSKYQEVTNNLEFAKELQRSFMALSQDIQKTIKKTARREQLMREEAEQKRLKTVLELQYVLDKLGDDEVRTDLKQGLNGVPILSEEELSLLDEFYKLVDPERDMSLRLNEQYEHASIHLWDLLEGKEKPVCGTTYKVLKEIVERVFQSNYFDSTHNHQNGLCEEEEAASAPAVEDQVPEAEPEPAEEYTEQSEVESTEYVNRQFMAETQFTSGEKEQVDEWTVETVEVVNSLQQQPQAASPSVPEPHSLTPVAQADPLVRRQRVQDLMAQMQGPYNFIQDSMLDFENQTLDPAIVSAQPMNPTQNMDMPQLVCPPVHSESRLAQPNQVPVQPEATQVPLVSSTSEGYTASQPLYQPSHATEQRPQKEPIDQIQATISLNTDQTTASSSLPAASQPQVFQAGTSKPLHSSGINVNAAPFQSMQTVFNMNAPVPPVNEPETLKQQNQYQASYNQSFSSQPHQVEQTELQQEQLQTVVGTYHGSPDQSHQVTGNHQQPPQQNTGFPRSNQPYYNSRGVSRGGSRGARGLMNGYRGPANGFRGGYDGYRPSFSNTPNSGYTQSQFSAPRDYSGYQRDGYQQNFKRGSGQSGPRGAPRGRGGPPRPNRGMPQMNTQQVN
The experiment in a line: affinity purification with mass spectrometry; proteins eluted from the Caprin-1 Co-IP resolved on 10% SDS-PAGE, Coomassie stained, in-gel digested, LC-MS/MS (LTQ Orbitrap Velos), searched against the UniProt human database.

Regarding “serine/threonine kinase 38 (STK38) (from UniProt Q15208 1-465)”, the binding result is listed as “binds”.
